PubChem BioAssay AID686938 – Drosophila RNAi Screening Center | 2013
The screen tested about 23,000 reagents; below is an unselected part of those with a known target gene and a result. Over the whole deposit, 75 (0.33%) were called active. 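Raw plate signals without normalisation; calls rest on plate z-scores that were not deposited; ratio present for only 364 wells.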 Names joined by + are all predicted targets of the reagent. No sequences are given here. The record does not give: the dose of the treatment.

- Test: 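Knock-downs reducing store-operated calcium influx in Drosophila cells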 (primary screen)
- Cells: Drosophila S2R+ cells
- Knock-down reagent: long dsRNA against Drosophila genes, about 0.25 µg dsRNA per well, roughly 10,000 cells
- Duration: 5 days of knock-down before the calcium assay
- Conditions: thapsigargin (SERCA pump blocker) to empty calcium stores; entry signal taken 4 min after adding it
- Measurement: 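Per-well fluo-4 fluorescence in two replicates, unnormalised, measured in resting cells and 4 min after store depletion by the SERCA blocker thapsigargin; ratio of the two present in few wells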
- Scale: calcium entry signal: higher = stronger calcium signal after store depletion; entry to resting ratio: higher = more calcium entry relative to resting level; resting calcium signal: higher = higher resting calcium signal
- Units: calcium entry signal in fluorescence units; resting calcium signal in fluorescence units
- Hit rule: 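Called when the plate z-score of the entry-to-rest ratio, mean of duplicates, falls below −3; wells with low overall dye signal (Fmax z below −2) or more than five off-targets excluded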
- Calls: active = strongly reduced calcium entry; inactive = no strong reduction

CG31687 + Cdc23 [DRSC23052] → calcium entry signal, replicate 1: 3.38e7; calcium entry signal, replicate 2: 4.49e7; resting calcium signal, replicate 1: 1.64e7; resting calcium signal, replicate 2: 2.25e7; Call: inactive
Pex23 [DRSC10323] → calcium entry signal, replicate 1: 3.07e7; calcium entry signal, replicate 2: 4.34e7; resting calcium signal, replicate 1: 1.53e7; resting calcium signal, replicate 2: 3.14e7; Call: inactive
Pex23 [DRSC10645] → calcium entry signal, replicate 1: 2.50e7; calcium entry signal, replicate 2: 4.22e7; resting calcium signal, replicate 1: 1.19e7; resting calcium signal, replicate 2: 1.60e7; Call: inactive
ATP8A [DRSC05421] → calcium entry signal, replicate 1: 3.38e7; calcium entry signal, replicate 2: 4.66e7; resting calcium signal, replicate 1: 1.55e7; resting calcium signal, replicate 2: 1.92e7; Call: inactive
ATP8A [DRSC06643] → calcium entry signal, replicate 1: 2.56e7; calcium entry signal, replicate 2: 2.41e7; resting calcium signal, replicate 1: 1.14e7; resting calcium signal, replicate 2: 1.19e7; Call: inactive
ATP8A [DRSC06644] → calcium entry signal, replicate 1: 3.19e7; calcium entry signal, replicate 2: 2.92e7; resting calcium signal, replicate 1: 1.64e7; resting calcium signal, replicate 2: 1.43e7; Call: inactive
Sf3b6 [DRSC09972] → calcium entry signal, replicate 1: 2.95e7; calcium entry signal, replicate 2: 2.15e7; resting calcium signal, replicate 1: 1.74e7; resting calcium signal, replicate 2: 1.22e7; Call: inactive
lectin-21Ca [DRSC00541] → calcium entry signal, replicate 1: 2.69e7; calcium entry signal, replicate 2: 3.31e7; resting calcium signal, replicate 1: 1.21e7; resting calcium signal, replicate 2: 1.46e7; Call: inactive

2 entries from above, ordered by “calcium entry signal, replicate 1”, low to high.
ATP8A [DRSC06643] → calcium entry signal, replicate 1: 2.56e7; calcium entry signal, replicate 2: 2.41e7; resting calcium signal, replicate 1: 1.14e7; resting calcium signal, replicate 2: 1.19e7; Call: inactive
ATP8A [DRSC06644] → calcium entry signal, replicate 1: 3.19e7; calcium entry signal, replicate 2: 2.92e7; resting calcium signal, replicate 1: 1.64e7; resting calcium signal, replicate 2: 1.43e7; Call: inactive

The results go on.
CG1271 [DRSC08290] → calcium entry signal, replicate 1: 3.82e7; calcium entry signal, replicate 2: 2.40e7; resting calcium signal, replicate 1: 2.68e7; resting calcium signal, replicate 2: 1.01e7; Call: inactive
CG5934 [DRSC15922] → calcium entry signal, replicate 1: 3.99e7; calcium entry signal, replicate 2: 6.22e7; resting calcium signal, replicate 1: 2.01e7; resting calcium signal, replicate 2: 2.34e7; Call: inactive
fz [DRSC11348] → calcium entry signal, replicate 1: 3.80e7; calcium entry signal, replicate 2: 4.38e7; resting calcium signal, replicate 1: 1.69e7; resting calcium signal, replicate 2: 1.91e7; Call: inactive
ft [DRSC00819] → calcium entry signal, replicate 1: 4.98e7; resting calcium signal, replicate 1: 2.52e7; Call: inactive
CG9920 [DRSC16578] → calcium entry signal, replicate 1: 2.96e7; calcium entry signal, replicate 2: 4.32e7; resting calcium signal, replicate 1: 1.53e7; resting calcium signal, replicate 2: 5.78e7; Call: inactive
CG12493 [DRSC08279] → calcium entry signal, replicate 1: 3.28e7; calcium entry signal, replicate 2: 5.91e7; resting calcium signal, replicate 1: 1.50e7; resting calcium signal, replicate 2: 2.52e7; Call: inactive
CG3225 [DRSC00578] → calcium entry signal, replicate 1: 3.19e7; resting calcium signal, replicate 1: 1.80e7; Call: inactive
FRG1 [DRSC10648] → calcium entry signal, replicate 1: 2.27e7; calcium entry signal, replicate 2: 4.04e7; resting calcium signal, replicate 1: 1.10e7; resting calcium signal, replicate 2: 1.75e7; Call: inactive
Eglp3 [DRSC04293] → calcium entry signal, replicate 1: 4.11e7; calcium entry signal, replicate 2: 5.09e7; resting calcium signal, replicate 1: 2.18e7; resting calcium signal, replicate 2: 2.34e7; Call: inactive
Mal-B2 [DRSC02417] → calcium entry signal, replicate 1: 4.71e7; calcium entry signal, replicate 2: 3.05e7; resting calcium signal, replicate 1: 2.39e7; resting calcium signal, replicate 2: 1.67e7; Call: inactive
CG5181 [DRSC02825] → calcium entry signal, replicate 1: 4.49e7; resting calcium signal, replicate 1: 2.04e7; Call: inactive
CG33521 [DRSC17179] → calcium entry signal, replicate 1: 3.11e7; calcium entry signal, replicate 2: 3.32e7; resting calcium signal, replicate 1: 1.52e7; resting calcium signal, replicate 2: 1.29e7; Call: inactive
CG33521 [DRSC17211] → calcium entry signal, replicate 1: 3.51e7; calcium entry signal, replicate 2: 4.85e7; entry to resting ratio: 2; resting calcium signal, replicate 1: 1.78e7; resting calcium signal, replicate 2: 1.98e7; Call: inactive
CG33521 [DRSC22919] → calcium entry signal, replicate 1: 3.61e7; calcium entry signal, replicate 2: 3.35e7; resting calcium signal, replicate 1: 1.82e7; resting calcium signal, replicate 2: 1.55e7; Call: inactive
